This is an account of results in PubChem BioAssay AID1508600 (Functional Genomics Laboratory (NCATS/FGL), 2020).

Screen size: about 53,000 sequences; about 3,700 (7%) were called active.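 How the source made its calls: active means gene knockdowns whose robust z-score for IL-1 alpha signal is at least 2 or at most -2, so actives lie on both sides; inactive means the rest.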 The list shows a part of the results.

This assay in a line: Components of the Cytosolic LPS Sensing Pathway: Gene Identification via Genome-wide siRNA Screen.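 Further: robust z of the log signal after scaling to non-targeting control siRNA wells of the plate.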 The conditions noted are these: RAW264.7 macrophages, IL-1a HTRF, actives lie on both sides, screened at 100 nM (by protocol), cells primed 5 h with Pam3CSK4 first. The method, boiled down:
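IL-1a HTRF of supernatants after 24 hour LipidA transfection of Pam3CSK4-primed (5 hours) RAW264.7 cells, 48h post-siRNA transfection (100 nM). Scores: percent of plate negative-control median, then log-based robust z-score.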
CGAUUUGAACACUGAUCAATT against Bub3: the z-score was inactive: -0.787.

Consider CCUUUGCCUAUGUUUACCATT against Ropn1l, for which the z-score is inactive: 0.851.

In the case of GGGAUAUGGAAAACUAUGATT against Ssmem1, the z-score is inactive: -1.43.

For GGCAGCAUUUGUUCUUUUATT against Ikzf1, the z-score is inactive: -1.

Take GGGAACACCUACCCUGUGUTT against Prl8a1: the z-score was inactive: -0.0181.

In the case of GCGAUAUGACAGACUCUUCTT against Csrnp1, the z-score was inactive: 1.79.

GGCCUAGACUGGUGCAAUGTT against Hapln3: the z-score was inactive: -0.0286.

Turning to GGUGGUCCAGGGAAGUAGATT against Gucy2e, the z-score was inactive: -0.834.

For CCUCUAUGUGAGAUUUGAGTT against Mamdc2, the z-score is inactive: -0.917.

For the sequence GCCAAAAGUCGAGCACCUCTT against Lrrc8d, the z-score is inactive: 0.43.

For the sequence GCACGGUGAGAUCAUCAAATT against Ap3b2, the z-score is inactive: 1.4.

Consider GGCUGAAUCGAAGAGACGGTT against Cntnap4, for which the z-score was inactive: -1.21.

As for GGAGAGUGUGUUUUCAGGCTT against Bop1, the z-score was active: 3.08.

Regarding GGGUGUCAAUUUACUUUUUTT against Slc16a2, the z-score was inactive: 0.658.

Consider GGCCUGCGUCAACUUUCUGTT against Btbd6, for which the z-score is inactive: -0.563.

Consider GGACAAUGGUUCACUUUUATT against Gmpr, for which the z-score was inactive: -0.823.

As for GGAUGUCAUCAAUGCUAUGTT against Olfr1022, the z-score is inactive: -0.643.

For GGAUGCUUUCAAACAUAUGTT against Olfr812, the z-score was inactive: 0.535.

In the case of GGACCAGUUACUUUAACAUTT against Pkdrej, the z-score is inactive: 0.555.

Regarding GGAGUUUCAGAUGUUGAAATT against Cpne2, the z-score was inactive: -0.209.

On to GCUAUACGCGAAAUUUGGCTT against Pfdn4, for which the z-score is inactive: -0.366.

CCAUUUCAGGUUCAAUCGGTT against B4galt7: the z-score was inactive: 0.639.

With GCCUAUGAGUAUCGAAUGUTT against Trim21, the z-score was inactive: 0.659.

Regarding CCAAGUAUUUCACAAACCGTT against Slc29a1, the z-score is inactive: 1.49.

For GCUUAUGACCCUAAGCACUTT against Tpte, the z-score is inactive: 0.236.

Consider GGAUUAUGUAGAGGCCCAATT against Gngt2, for which the z-score is active: -2.63.

On to GCCGGAUGACCUACCAUUUTT against Apoh, for which the z-score was inactive: -0.602.

For CCCAGUUCACAUUAAAACATT against Sec62, the z-score was inactive: -0.355.

For GGGAGCUCUCUACGAGAUUTT against Tmc8, the z-score was inactive: 1.1.

On to GCUACUCCUUAAUUGGCAATT against Wscd2, for which the z-score was inactive: -0.813.

In the case of GGCACUUUGUGGCAAAUCUTT against Pcdhb1, the z-score is inactive: 0.742.

For the sequence GGGAUGCUAACAGGUGUCATT against Tkfc, the z-score was inactive: -0.12.

Turning to GGCGAGUGCUGAAUCUUUGTT against Pcdhb20, the z-score is inactive: -0.71.

Consider GGAAGAGAAGUUGUCCAAATT against Creld1, for which the z-score was inactive: 0.477.

Consider “GGUUACCAGAAAAUAACUATT against E130114P18Rik”, for which the z-score was inactive: 0.852.

Turning to GCAAAUGUGGGACAGUAAGTT against Wdfy2, the z-score was inactive: 0.218.

On to GGAGAAACAACAGUUUCAGTT against Maml1, for which the z-score was inactive: 0.177.

On to CCAGCCCAUACCCAUUACCTT against Olfr3, for which the z-score was inactive: 1.05.

As for GCUAUAAAUUCAGCAUUGGTT against Gtf2a2, the z-score was inactive: -0.388.

Turning to GGCCACUUGCCUAUUGUGATT against Anxa6, the z-score was inactive: -0.343.

For the sequence CCUAAUUGUAGUAGUACUATT against Olfr117, the z-score was inactive: -0.955.

Turning to GACACUCAGACGGAAUGUUTT against Sct, the z-score was inactive: -0.521.

With CCUUUCCUACUCUGUACCCTT against Abcg1, the z-score was active: 2.22.

As to CCCGCCAGAUGAUGCAUAATT against Unc5cl, the z-score was inactive: -0.254.

In the case of GAUGUUCUGCAUCUACUUUTT against Olfr545, the z-score is inactive: 1.46.

On to GCCUCAUACCUUGUUACUATT against Ap5b1, for which the z-score is inactive: -1.2.

On to GCCACUAUUACUCUGAUACTT against Naip3, for which the z-score is inactive: -0.028.

As for CCCUAAUUCAUGGACCUUGTT against Kremen2, the z-score was inactive: -0.534.

Consider GCCAAGGACUCAGUGAAUGTT against Iqsec2, for which the z-score was inactive: -1.19.

GGAGCUAGAACUCAAUGAATT against Lingo1: the z-score was inactive: 0.65.

For the sequence GGUUUUGGAAAAAGUGGAUTT against Chp1, the z-score was inactive: -0.867.

GGAAAUUGUGAGAAGAACUTT against Slx4ip: the z-score was active: 2.33.

In the case of CCCAUCUGUUUGAGUGUAUTT against Ms4a1, the z-score is inactive: -0.305.

For GGUGAACCUCCAGAACAAUTT against Bcap31, the z-score is inactive: 1.58.

For the sequence CCUUUCAAUUGGCUCUGAATT against Sumo1, the z-score was inactive: 0.506.

Turning to GGUAGCUGACAAAGAGUAATT against Sp5, the z-score is inactive: 0.682.

For GCCUACAGAGUGAUCAACATT against Fxyd5, the z-score was inactive: -0.318.

As for GGAGAAAGCACUCUAUCUCTT against Abcc10, the z-score is inactive: -0.0656.

For the sequence GGAUUUAGCCAAAGAAAAGTT against Tbc1d8, the z-score is inactive: -1.77.

Regarding GGAUGGACCGCAUUGAAAATT against Rilpl1, the z-score is inactive: -0.663.

For the sequence GGACUUUGAGAAUGUGGAUTT against Xylt1, the z-score is inactive: 0.367.

As for GGUCUGACCAUGAUCAUAATT against Tmem251, the z-score was inactive: -1.76.

On to GGCAGAUUCCAGGCUUCACTT against Olfr513, for which the z-score was inactive: 0.231.

As to GCCGGACUUCCCAUCUGUUTT against Srebf1, the z-score is inactive: -0.784.

As to CCGUCGUCCUAGAAAAACCTT against Nsun7, the z-score is inactive: -1.18.

With GGAAAGUACACAAAUGAACTT against Chil4, the z-score was inactive: -0.278.

Consider GCAUCCUGAGCAGUGAUAUTT against Taar7b, for which the z-score was inactive: -1.75.

In the case of GGAUUGUAGUCGUUUCUUCTT against Rdh14, the z-score is inactive: -0.357.

On to GGACAUGAAUGCAUUUUUATT against Klhl8, for which the z-score is inactive: 0.39.

In the case of GGUUCAGUUGAUGCUUUAUTT against Lrba, the z-score was inactive: 0.407.

GGAGCUGAACUAUUGUCAUTT against Ccdc186: the z-score is inactive: 0.979.

In the case of CGAAGUGAGGCAAAUCGAATT against Stx18, the z-score was inactive: 0.835.

Take GGCGAGAUUAAAAAAUGGUTT against Zhx1: the z-score was inactive: 0.114.

For the sequence GCAAAUUACCACAUUGUCUTT against Adam12, the z-score is inactive: 0.606.

With GGCUUACCUGAGGAAUGCUTT against Dhrs7b, the z-score was inactive: 0.25.

“GGAUCAGGAGGCCAUCACATT against 4933421I07Rik”: the z-score was inactive: -1.92.

On to CGAAGUGAAGAUUUACAGCTT against Nol10, for which the z-score was inactive: -0.106.

Take CGGCAACAAAUUCUACUCUTT against Ambp: the z-score is inactive: -0.631.

Consider GGACAUAUAGCUGAUUUCUTT against Ctdsp2, for which the z-score is inactive: 1.97.

Consider GGUCACAGACCAAGCUUAUTT against Mmp15, for which the z-score was inactive: -0.0289.

With GCCCUCGAGAAGCUCUCAUTT against Zfp202, the z-score was inactive: -1.58.

Take GGCAGCUCCUUCACAUUUUTT against Net1: the z-score is inactive: 0.437.

With GGACUUAUUGCUUCAGUCUTT against Resp18, the z-score is inactive: 0.894.

As for GGAUAAGACCAUCAGAUUATT against Wdr31, the z-score was inactive: 1.18.

In the case of GCUGGAAUACGUUGAUAUATT against Kcnab3, the z-score is active: 3.68.

Turning to GGAAAUAAACCCUUGAUAUTT against Rhof, the z-score is inactive: 0.305.

GCUAGUUAAGAGGAGGCUGTT against Nob1: the z-score was inactive: -0.252.

For GCCAGUGCAUGAAAGAUAUTT against Kansl1l, the z-score was inactive: -0.772.

Take GGGUCACUACAUUUGACACTT against Sh3glb2: the z-score was inactive: 0.0474.

Consider GGUCAAUGUGUUUAUGUGATT against Nxt2, for which the z-score is inactive: -0.775.

In the case of GGAUACGACACCAAGAAUATT against Fam102a, the z-score is inactive: 0.0981.

As for CGACAUCGACAGUCUAUAATT against Aoc1, the z-score was inactive: -0.363.

Turning to GGUCUUUGAUCUACGAAUGTT against Rhobtb2, the z-score was inactive: 0.825.

For the sequence GGAGUCGAGUGAUGGUUCATT against Rtl1, the z-score was inactive: -1.09.

On to CCAAAUAUUGCCUAGCUGCTT against Qtrt2, for which the z-score is inactive: 0.152.

In the case of GGAUGCAUGGCUCAGUUAUTT against Olfr143, the z-score was inactive: -0.0703.

Turning to CCUUCAGAGUUUCAGACAATT against Fancd2os, the z-score was inactive: -0.185.

Take GGGUUAAAAACAAAGGACGTT against Adcyap1: the z-score is inactive: 0.12.

Consider GCAGGAAUGCGGUAUAAACTT against Inpp5f, for which the z-score is inactive: 0.707.

GCGAGUGACACAUCUUCUCTT against Klhl7: the z-score is inactive: 0.467.

Turning to GCAGUUAUCGUGAAGUCUGTT against Tfap4, the z-score is inactive: 0.217.

In the case of GCCUCUUUAGGCUCUCUUUTT against Hspb6, the z-score was inactive: 0.449.

With GGAGAAGAGUCAAGAGCUCTT against Vxn, the z-score is inactive: 0.103.

As for GGUGAAGAGACUGGAGAACTT against Cavin2, the z-score is inactive: -0.277.

With GCAGAGACUCCAAAGCUCATT against Chd4, the z-score is active: -2.

For the sequence GCAAUGUACUGGUAUAAUUTT against Slc25a40, the z-score was inactive: -0.486.

As for GCUGCACAAGUGAUAUCCGTT against Trim26, the z-score is inactive: 0.397.
